Single values of this data set are uncertain.
B1: human tRNA-Pro; a variant is named by its letters at N, in order (parent)
chain: GGCTCGTTGGTCTAGNGGTATGATTCTCGCTTAGGGTGCGAGAGGTCCCGGGTTCNNATCCCGGACGAGCCC

Assays:
[1] = variants of: B1; experiment: tRNA Pol-III promoter activity, log2 (circRNA frequency / plasmid DNA frequency) (log2 ratio); higher = stronger promoter activity; conditions: HEK293T; construct: no Pol-II promoter ((-)CMV library)
[2] = variants of: B1; experiment: tRNA 3' processing efficiency (processed reads / all reads, maximum-likelihood estimate) (fraction); higher = more efficient 3' processing; conditions: HEK293T; construct: no Pol-II promoter ((-)CMV library)
[3] = variants of: B1; experiment: tRNA 5' processing efficiency (processed reads / all reads, maximum-likelihood estimate) (fraction); higher = more efficient 5' processing; conditions: HEK293T; construct: CMV Pol-II promoter ((+)CMV library, decapped)

| Variant | tRNA Pol-III promoter activity (log2) [1] | tRNA 3' processing efficiency [2] | tRNA 5' processing efficiency [3] |
| --- | --- | --- | --- |
| GAG G17A G18T | 4.03 | 0.25 | – |
| GAG T8C | 2.46 | 0.32 | – |
| GAG T8G | 1.17 | 0.56 | 0.25 |
| GAG T8G G9T | 3.26 | 0.4 | – |
| GAT G9T A14G G15A | 6.03 | 0.34 | – |
| GAT A14C G15T A58T | 6.36 | 0.2 | – |
| GAT G9T A58G | 3.06 | 0.4 | – |
| AAT A20T | 2.49 | 0.43 | 0.06 |
| AAT A20C | 3.09 | 0.42 | – |
| GAT A14T T19G | 2.16 | 0.29 | – |
| GAG T8G G15C | 4.86 | 0.36 | – |
| AAG T8C A14T | 6.25 | 0.2 | – |
| GAG G15T | -1.51 | 0.33 | 0.5 |
| GAT G9T A14T | 2.56 | 0.4 | – |
| GAG T8C A14T | 4.03 | 0.15 | – |
| GAG T8C A14C | 3.62 | 0.25 | – |
| GAG T8C A14G | 5.25 | 0.2 | – |
| TAT A20T | 2.54 | 0.5 | – |
| TAT A20G | 3.2 | 0.33 | – |

Copied from above (two entries):

| Variant | tRNA Pol-III promoter activity (log2) [1] | tRNA 3' processing efficiency [2] | tRNA 5' processing efficiency [3] |
| --- | --- | --- | --- |
| GAG T8C A14T | 4.03 | 0.15 | – |
| GAG T8C A14C | 3.62 | 0.25 | – |

(continued)

| Variant | tRNA Pol-III promoter activity (log2) [1] | tRNA 3' processing efficiency [2] | tRNA 5' processing efficiency [3] |
| --- | --- | --- | --- |
| GAG T8A T19G A58G | 6.36 | 0.4 | – |
| GAG T19A A20T | 4.77 | 0.38 | – |
| GAG G17T G18T | 1.67 | 0.2 | – |
| TAT A14C T21C | 6.53 | 0.67 | – |
| GAG T8C G15A | 3.03 | 0.2 | – |
| GAG T8C G15C | 7.84 | 0.14 | – |
| CAG T8G | 3.29 | 0.14 | – |
| CAG T8C | 3.55 | 0.2 | – |
| GAT A14C G15C G18T | 3.71 | 0.33 | – |
| GAT G9A A14T | 5.64 | 0.16 | – |
| GAT G9A A14G | 3.72 | 0.33 | – |
| GAT G15A A58G | 3.55 | 0.2 | – |
| GAT A20T A58T | 1.08 | 0.25 | – |
| GAG G17A T59A | 3.93 | 0.55 | – |
| GAG G15T G17A | 3.45 | 0.17 | – |
| CAT A14C G15T | 4.26 | 0.4 | – |
| GAG T8A G18A | 1.56 | 0.2 | – |
| GAT A14G G18A T19G | 6.75 | 0.05 | – |
| GAT G9T A14G A58T | 4.93 | 0.25 | – |

| Variant | tRNA Pol-III promoter activity (log2) [1] | tRNA 3' processing efficiency [2] | tRNA 5' processing efficiency [3] |
| --- | --- | --- | --- |
| GAT G9T | 1.44 | 0.17 | 0.2 |
| GAT G9A | 3.71 | 0.27 | – |
| GAT G9C | 1.39 | 0.47 | – |
| AAT A58G | 8.87 | 0.18 | – |
| GAT A14C G18A | 3.36 | 0.2 | – |
| GAG T8G A20T | 4.3 | 0.22 | – |
| GAT A14C T59G | 3.34 | 0.33 | – |
| GAT A14C T59C | 4.84 | 0.27 | – |
| GAT A14T G18A | 1.88 | 0.5 | – |
| GAT G2A | 4.45 | 0.25 | – |
| GAT A14G G17A T19C | 3.94 | 0.25 | – |
| GAT A14G | 3.7 | 0.27 | 0.19 |
| GAT A14C | 2.38 | 0.3 | – |
| GAT A14T | 3.6 | 0.36 | – |
| GAT A14T G15T | 5.16 | 0.57 | – |
| GAT A14T G15C | 3.03 | 0.2 | – |
| GAT A14T T59C | 3.14 | 0.14 | – |
| GAT A14T T59A | 2.93 | 0.25 | – |

Source: the supplement of paper PMC6445147
